The nature of the series: general procedure: solution-phase peptide synthesis; acetyl-ONB / Pal-ONB (acylating agents). Conditions: HOAc, TFA or HCl salts.
The mark [1] stands for this setting: late stage modification step, of the theoretical.

Turning to “(N^α -Palmitoyl-arginyl)lysylglutamylvalyltyrosine”, the step yield under setting [1] turned out to be 92.7%.
For the substance “(N^α -acetyl-arginyl)(N^ε -acetyl-lysyl)glutamylvalyltyrosine”, the step yield was found to be 92% (late stage modification step, of the theoretical, run 1); 90% (late stage modification step, of the theoretical, run 2); 54.3% (purification step). Also, the “crude HPLC purity” value (late stage modification step, reverse phase HPLC) was 75%. For the same substance, for the setting “purification step, reverse phase HPLC”, the “final HPLC purity” value was 98.5%.
For the substance “(N^α -acetyl-arginyl)lysylglutamylvalyltyrosine”, under setting [1], the step yield turned out to be 95.6%.

These data come from patent publication US5656601 (dated 1997).
